Test results as given in US7678773B2, “Salts of avermectins substituted in the 4″-position and having pesticidal properties” (Merial Limited, priority 2001, dated 2010).
Some entries share one result that the patent states for a list of compounds.

What was measured:
Format in all cases: in vivo
Spodoptera littoralis [1] = experiment: Example B2: Action against Spodoptera littoralis, systemic (maize seedlings); details: systemic: maize seedlings in test solution 6 days; leaves infested with L1 larvae; evaluated 4 days later
Heliothis virescens = experiment: Example B3: Action against Heliothis virescens (eggs on filter paper); details: 0.8 ml test solution on eggs 0 to 24 hours old; evaluated 6 days later
[2] = test system: Frankliniella occidentalis; experiment: Example B5: Action against Frankliniella occidentalis (bean leaf pieces); details: bean leaf pieces sprayed with test solution; mixed population; evaluated 10 days later
Spodoptera littoralis [3] = experiment: Example B1: Action against Spodoptera littoralis (sprayed soybean plants); details: 12.5 ppm spray on young soybean plants; first-stage caterpillars; evaluated 3 days later vs untreated plants
Experimental: Young soybean plants are sprayed with an aqueous emulsion spray mixture comprising 12.5 ppm of test compound and, after the spray-coating has dried, the plants are populated with 10 caterpillars of Spodoptera littoralis in the first stage and then placed in a plastics container. 3 days later, the percentage reduction in population and the percentage reduction in feeding damage (% activity) are determined by comparing the number of dead caterpillars and the feeding damage on the treated plants with that on untreated plants.

Plutella xylostella = experiment: Example B4: Action against Plutella xylostella caterpillars (sprayed cabbage plants); details: 12.5 ppm spray on young cabbage plants; first-stage caterpillars; evaluated 3 days later
Experimental: Young cabbage plants are sprayed with an aqueous emulsion spray mixture comprising 12.5 ppm of test compound. After the spray-coating has dried, the cabbage plants are populated with 10 caterpillars of Plutella xylostella in the first stage and placed in a plastics container. Evaluation is made 3 days later. The percentage reduction in population and the percentage reduction in feeding damage (% activity) are determined by comparing the number of dead caterpillars and the feeding damage on the treated plants with that on the untreated plants.

Diabrotica balteata = experiment: Example B6: Action against Diabrotica balteata (sprayed maize seedlings); details: 12.5 ppm spray on maize seedlings; second-stage larvae; evaluated 6 days later
Experimental: Maize seedlings are sprayed with an aqueous emulsion spray mixture comprising 12.5 ppm of the test compound and, after the spray-coating has dried, the maize seedlings are populated with 10 Diabrotica balteata larvae in the second stage and then placed in a plastics container. 6 days later, the percentage reduction in population (% activity) is determined by comparing the number of dead larvae on the treated plants with that on untreated plants.

Tetranychus urticae = experiment: Example B7: Action against Tetranychus urticae (sprayed bean plants); details: 12.5 ppm spray on young bean plants; mixed population; 6 days at 25° C.
Experimental: Young bean plants are populated with a mixed population of Tetranychus urticae and sprayed one day later with an aqueous emulsion spray mixture comprising 12.5 ppm of test compound. The plants are incubated for 6 days at 25° C. and subsequently evaluated. The percentage reduction in population (% activity) is determined by comparing the number of dead eggs, larvae and adults on the treated plants with that on untreated plants.

Measured: reduction in the pest population (% activity)

O=C(O)c1ccccc1-c1ccccc1 [B.11, 2-phenyl-benzoic acid]
more than 80%: Spodoptera littoralis [1] | Heliothis virescens | [2]

CCC(C)C1OC2(C=CC1C)CC1CC(CC=C(C)C(OC3CC(OC)C(OC4CC(OC)C(N(C)C)C(C)O4)C(C)O3)C(C)C=CC=C3COC4C(O)C(C)=CC(C(=O)O1)C34O)O2.COc1ccc(CC(=O)O)cc1 (centres unmarked) [B.22]
more than 80%: all assays above

CCC(C)C1OC2(C=CC1C)CC1CC(CC=C(C)C(OC3CC(OC)C(OC4CC(OC)C(N(C)C)C(C)O4)C(C)O3)C(C)C=CC=C3COC4C(O)C(C)=CC(C(=O)O1)C34O)O2.CCOCC(=O)O (centres unmarked) [B.29]
more than 80%: all assays above

Cc1ccc(C(=O)O)cc1 [B.32, p-toluic acid]
more than 80%: Spodoptera littoralis [1] | Heliothis virescens | [2]

CCC(C)C1OC2(C=CC1C)CC1CC(CC=C(C)C(OC3CC(OC)C(OC4CC(OC)C(N(C)C)C(C)O4)C(C)O3)C(C)C=CC=C3COC4C(O)C(C)=CC(C(=O)O1)C34O)O2.O=C(O)c1ccco1 (centres unmarked) [B.36]
more than 80%: all assays above

O=C(O)c1cccc(F)c1 [B.41, 3-fluoro-benzoic acid]
more than 80%: Spodoptera littoralis [1] | Heliothis virescens | [2]

Cc1ccc(C)c(C(=O)O)c1 [B.44, 2,5-dimethyl-benzoic acid]
more than 80%: Spodoptera littoralis [1] | Heliothis virescens | [2]

CCC(C)C1OC2(C=CC1C)CC1CC(CC=C(C)C(OC3CC(OC)C(OC4CC(OC)C(N(C)C)C(C)O4)C(C)O3)C(C)C=CC=C3COC4C(O)C(C)=CC(C(=O)O1)C34O)O2.O=C(O)c1cccc(C(F)(F)F)c1 (centres unmarked) [B.47]
more than 80%: all assays above

CCC(C)C1OC2(C=CC1C)CC1CC(CC=C(C)C(OC3CC(OC)C(OC4CC(OC)C(N(C)C)C(C)O4)C(C)O3)C(C)C=CC=C3COC4C(O)C(C)=CC(C(=O)O1)C34O)O2.O=S(=O)(O)C(F)(F)F (centres unmarked) [B.51]
more than 80%: all assays above

CC(C)C(=O)O.CCC(C)C1OC2(C=CC1C)CC1CC(CC=C(C)C(OC3CC(OC)C(OC4CC(OC)C(N(C)C)C(C)O4)C(C)O3)C(C)C=CC=C3COC4C(O)C(C)=CC(C(=O)O1)C34O)O2 (centres unmarked) [B.52]
more than 80%: all assays above

CCC(C)C1OC2(C=CC1C)CC1CC(CC=C(C)C(OC3CC(OC)C(OC4CC(OC)C(N(C)C)C(C)O4)C(C)O3)C(C)C=CC=C3COC4C(O)C(C)=CC(C(=O)O1)C34O)O2.O=C(O)c1ccccc1S (centres unmarked) [B.60]
more than 80%: all assays above

CC(C)(C)c1ccc(C(=O)O)cc1 [B.71, 4-tert-butyl-benzoic acid]
more than 80%: Spodoptera littoralis [1] | Heliothis virescens | [2]

C=CC(=O)O.CCC(C)C1OC2(C=CC1C)CC1CC(CC=C(C)C(OC3CC(OC)C(OC4CC(OC)C(N(C)C)C(C)O4)C(C)O3)C(C)C=CC=C3COC4C(O)C(C)=CC(C(=O)O1)C34O)O2 (centres unmarked) [B.74]
more than 80%: all assays above

O=C(O)c1ccc(O)cc1O [B.82, 2,4-dihydroxy-benzoic acid]
more than 80%: Spodoptera littoralis [1] | Heliothis virescens | [2]

CCC(C)C1OC2(C=CC1C)CC1CC(CC=C(C)C(OC3CC(OC)C(OC4CC(OC)C(N(C)C)C(C)O4)C(C)O3)C(C)C=CC=C3COC4C(O)C(C)=CC(C(=O)O1)C34O)O2.COCC(=O)O (centres unmarked) [B.83]
more than 80%: all assays above

C=CCCC(=O)O.CCC(C)C1OC2(C=CC1C)CC1CC(CC=C(C)C(OC3CC(OC)C(OC4CC(OC)C(N(C)C)C(C)O4)C(C)O3)C(C)C=CC=C3COC4C(O)C(C)=CC(C(=O)O1)C34O)O2 (centres unmarked) [B.86]
more than 80%: all assays above

CC(C)(O)C(=O)O.CCC(C)C1OC2(C=CC1C)CC1CC(CC=C(C)C(OC3CC(OC)C(OC4CC(OC)C(N(C)C)C(C)O4)C(C)O3)C(C)C=CC=C3COC4C(O)C(C)=CC(C(=O)O1)C34O)O2 (centres unmarked) [B.91]
more than 80%: all assays above
